Test results published in the supplement of paper PMC11006884.
Only a part is listed here, and it is no random draw.

By UniProt entry, the sequences of proteins in these tests, tags left out. Where a name states a change or a piece, a line headed by the entry shows the natural chain unless it says otherwise.
UniProt P49756, whole entry, looked up: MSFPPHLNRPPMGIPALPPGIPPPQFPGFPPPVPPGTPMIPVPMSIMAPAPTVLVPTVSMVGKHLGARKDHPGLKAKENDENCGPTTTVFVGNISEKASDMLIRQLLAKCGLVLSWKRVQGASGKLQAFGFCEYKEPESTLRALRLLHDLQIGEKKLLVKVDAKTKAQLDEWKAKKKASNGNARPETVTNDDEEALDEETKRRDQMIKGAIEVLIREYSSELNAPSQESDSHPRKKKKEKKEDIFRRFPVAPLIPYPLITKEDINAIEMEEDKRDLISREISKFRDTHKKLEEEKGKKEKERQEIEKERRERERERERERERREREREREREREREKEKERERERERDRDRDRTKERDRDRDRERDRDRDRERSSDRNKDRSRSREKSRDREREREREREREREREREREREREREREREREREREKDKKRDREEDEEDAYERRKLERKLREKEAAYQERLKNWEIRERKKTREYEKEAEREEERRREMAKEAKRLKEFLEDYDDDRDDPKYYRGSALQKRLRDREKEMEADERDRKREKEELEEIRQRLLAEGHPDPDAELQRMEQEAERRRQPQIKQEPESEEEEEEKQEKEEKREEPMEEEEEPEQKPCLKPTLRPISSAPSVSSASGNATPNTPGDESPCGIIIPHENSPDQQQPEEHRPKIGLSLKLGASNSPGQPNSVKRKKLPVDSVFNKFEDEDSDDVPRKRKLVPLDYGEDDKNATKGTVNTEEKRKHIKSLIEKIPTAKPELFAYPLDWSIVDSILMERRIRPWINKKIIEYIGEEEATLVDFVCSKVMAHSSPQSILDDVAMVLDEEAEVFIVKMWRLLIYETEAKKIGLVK
UniProt P49821, whole entry, looked up: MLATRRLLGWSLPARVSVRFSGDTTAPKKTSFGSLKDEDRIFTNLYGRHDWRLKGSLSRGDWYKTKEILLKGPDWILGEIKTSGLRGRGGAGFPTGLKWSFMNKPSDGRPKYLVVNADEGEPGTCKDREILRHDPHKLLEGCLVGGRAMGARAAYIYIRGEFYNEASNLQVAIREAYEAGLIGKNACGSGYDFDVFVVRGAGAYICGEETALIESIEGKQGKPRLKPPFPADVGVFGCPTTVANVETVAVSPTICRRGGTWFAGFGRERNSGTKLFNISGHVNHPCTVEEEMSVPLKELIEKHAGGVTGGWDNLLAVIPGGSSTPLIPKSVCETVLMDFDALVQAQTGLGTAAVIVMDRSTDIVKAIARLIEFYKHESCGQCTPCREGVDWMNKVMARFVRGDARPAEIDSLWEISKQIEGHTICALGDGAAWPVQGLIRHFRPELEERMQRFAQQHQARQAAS
UniProt P43490: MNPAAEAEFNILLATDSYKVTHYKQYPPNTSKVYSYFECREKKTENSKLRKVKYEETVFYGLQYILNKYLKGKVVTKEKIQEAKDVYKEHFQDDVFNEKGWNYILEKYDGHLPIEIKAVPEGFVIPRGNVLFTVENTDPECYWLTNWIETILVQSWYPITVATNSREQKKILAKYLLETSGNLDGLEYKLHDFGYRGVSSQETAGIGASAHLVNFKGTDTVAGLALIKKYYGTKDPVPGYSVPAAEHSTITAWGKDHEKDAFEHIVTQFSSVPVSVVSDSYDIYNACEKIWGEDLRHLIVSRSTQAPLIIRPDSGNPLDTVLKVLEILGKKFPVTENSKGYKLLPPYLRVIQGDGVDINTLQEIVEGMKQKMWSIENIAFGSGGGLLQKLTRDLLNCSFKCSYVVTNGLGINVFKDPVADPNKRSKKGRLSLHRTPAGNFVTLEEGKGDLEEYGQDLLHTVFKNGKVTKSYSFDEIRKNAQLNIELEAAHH
UniProt P46734: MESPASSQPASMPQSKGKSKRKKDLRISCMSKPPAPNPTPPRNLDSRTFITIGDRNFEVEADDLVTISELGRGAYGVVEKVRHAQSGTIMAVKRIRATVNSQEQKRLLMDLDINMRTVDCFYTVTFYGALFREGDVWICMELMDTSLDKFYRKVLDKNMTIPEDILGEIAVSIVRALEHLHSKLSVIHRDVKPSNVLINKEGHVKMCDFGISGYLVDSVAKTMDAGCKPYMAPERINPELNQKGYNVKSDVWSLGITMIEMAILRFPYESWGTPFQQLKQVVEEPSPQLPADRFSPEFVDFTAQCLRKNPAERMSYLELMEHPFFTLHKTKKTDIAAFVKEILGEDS
UniProt P49368: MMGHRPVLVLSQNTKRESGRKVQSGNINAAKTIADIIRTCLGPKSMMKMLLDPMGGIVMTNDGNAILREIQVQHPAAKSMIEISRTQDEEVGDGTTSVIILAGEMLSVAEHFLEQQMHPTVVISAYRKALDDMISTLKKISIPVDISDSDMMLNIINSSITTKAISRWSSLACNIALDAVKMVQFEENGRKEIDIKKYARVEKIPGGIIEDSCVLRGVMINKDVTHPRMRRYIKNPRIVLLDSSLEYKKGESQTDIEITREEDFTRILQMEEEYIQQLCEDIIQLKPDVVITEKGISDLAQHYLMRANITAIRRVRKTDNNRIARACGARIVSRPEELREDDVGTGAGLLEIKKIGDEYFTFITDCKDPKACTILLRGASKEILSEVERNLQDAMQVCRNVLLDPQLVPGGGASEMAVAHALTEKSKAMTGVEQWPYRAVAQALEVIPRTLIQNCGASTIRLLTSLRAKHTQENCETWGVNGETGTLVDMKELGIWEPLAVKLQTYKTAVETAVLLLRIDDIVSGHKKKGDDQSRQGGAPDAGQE
UniProt P47756, whole entry, looked up: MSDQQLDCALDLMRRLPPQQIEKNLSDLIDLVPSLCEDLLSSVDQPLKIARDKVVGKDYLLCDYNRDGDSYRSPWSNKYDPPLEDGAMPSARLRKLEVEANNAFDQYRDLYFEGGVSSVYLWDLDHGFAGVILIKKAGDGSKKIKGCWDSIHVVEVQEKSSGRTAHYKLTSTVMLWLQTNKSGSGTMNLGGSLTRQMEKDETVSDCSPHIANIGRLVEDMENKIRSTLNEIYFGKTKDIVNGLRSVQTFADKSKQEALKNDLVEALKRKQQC
UniProt P46939: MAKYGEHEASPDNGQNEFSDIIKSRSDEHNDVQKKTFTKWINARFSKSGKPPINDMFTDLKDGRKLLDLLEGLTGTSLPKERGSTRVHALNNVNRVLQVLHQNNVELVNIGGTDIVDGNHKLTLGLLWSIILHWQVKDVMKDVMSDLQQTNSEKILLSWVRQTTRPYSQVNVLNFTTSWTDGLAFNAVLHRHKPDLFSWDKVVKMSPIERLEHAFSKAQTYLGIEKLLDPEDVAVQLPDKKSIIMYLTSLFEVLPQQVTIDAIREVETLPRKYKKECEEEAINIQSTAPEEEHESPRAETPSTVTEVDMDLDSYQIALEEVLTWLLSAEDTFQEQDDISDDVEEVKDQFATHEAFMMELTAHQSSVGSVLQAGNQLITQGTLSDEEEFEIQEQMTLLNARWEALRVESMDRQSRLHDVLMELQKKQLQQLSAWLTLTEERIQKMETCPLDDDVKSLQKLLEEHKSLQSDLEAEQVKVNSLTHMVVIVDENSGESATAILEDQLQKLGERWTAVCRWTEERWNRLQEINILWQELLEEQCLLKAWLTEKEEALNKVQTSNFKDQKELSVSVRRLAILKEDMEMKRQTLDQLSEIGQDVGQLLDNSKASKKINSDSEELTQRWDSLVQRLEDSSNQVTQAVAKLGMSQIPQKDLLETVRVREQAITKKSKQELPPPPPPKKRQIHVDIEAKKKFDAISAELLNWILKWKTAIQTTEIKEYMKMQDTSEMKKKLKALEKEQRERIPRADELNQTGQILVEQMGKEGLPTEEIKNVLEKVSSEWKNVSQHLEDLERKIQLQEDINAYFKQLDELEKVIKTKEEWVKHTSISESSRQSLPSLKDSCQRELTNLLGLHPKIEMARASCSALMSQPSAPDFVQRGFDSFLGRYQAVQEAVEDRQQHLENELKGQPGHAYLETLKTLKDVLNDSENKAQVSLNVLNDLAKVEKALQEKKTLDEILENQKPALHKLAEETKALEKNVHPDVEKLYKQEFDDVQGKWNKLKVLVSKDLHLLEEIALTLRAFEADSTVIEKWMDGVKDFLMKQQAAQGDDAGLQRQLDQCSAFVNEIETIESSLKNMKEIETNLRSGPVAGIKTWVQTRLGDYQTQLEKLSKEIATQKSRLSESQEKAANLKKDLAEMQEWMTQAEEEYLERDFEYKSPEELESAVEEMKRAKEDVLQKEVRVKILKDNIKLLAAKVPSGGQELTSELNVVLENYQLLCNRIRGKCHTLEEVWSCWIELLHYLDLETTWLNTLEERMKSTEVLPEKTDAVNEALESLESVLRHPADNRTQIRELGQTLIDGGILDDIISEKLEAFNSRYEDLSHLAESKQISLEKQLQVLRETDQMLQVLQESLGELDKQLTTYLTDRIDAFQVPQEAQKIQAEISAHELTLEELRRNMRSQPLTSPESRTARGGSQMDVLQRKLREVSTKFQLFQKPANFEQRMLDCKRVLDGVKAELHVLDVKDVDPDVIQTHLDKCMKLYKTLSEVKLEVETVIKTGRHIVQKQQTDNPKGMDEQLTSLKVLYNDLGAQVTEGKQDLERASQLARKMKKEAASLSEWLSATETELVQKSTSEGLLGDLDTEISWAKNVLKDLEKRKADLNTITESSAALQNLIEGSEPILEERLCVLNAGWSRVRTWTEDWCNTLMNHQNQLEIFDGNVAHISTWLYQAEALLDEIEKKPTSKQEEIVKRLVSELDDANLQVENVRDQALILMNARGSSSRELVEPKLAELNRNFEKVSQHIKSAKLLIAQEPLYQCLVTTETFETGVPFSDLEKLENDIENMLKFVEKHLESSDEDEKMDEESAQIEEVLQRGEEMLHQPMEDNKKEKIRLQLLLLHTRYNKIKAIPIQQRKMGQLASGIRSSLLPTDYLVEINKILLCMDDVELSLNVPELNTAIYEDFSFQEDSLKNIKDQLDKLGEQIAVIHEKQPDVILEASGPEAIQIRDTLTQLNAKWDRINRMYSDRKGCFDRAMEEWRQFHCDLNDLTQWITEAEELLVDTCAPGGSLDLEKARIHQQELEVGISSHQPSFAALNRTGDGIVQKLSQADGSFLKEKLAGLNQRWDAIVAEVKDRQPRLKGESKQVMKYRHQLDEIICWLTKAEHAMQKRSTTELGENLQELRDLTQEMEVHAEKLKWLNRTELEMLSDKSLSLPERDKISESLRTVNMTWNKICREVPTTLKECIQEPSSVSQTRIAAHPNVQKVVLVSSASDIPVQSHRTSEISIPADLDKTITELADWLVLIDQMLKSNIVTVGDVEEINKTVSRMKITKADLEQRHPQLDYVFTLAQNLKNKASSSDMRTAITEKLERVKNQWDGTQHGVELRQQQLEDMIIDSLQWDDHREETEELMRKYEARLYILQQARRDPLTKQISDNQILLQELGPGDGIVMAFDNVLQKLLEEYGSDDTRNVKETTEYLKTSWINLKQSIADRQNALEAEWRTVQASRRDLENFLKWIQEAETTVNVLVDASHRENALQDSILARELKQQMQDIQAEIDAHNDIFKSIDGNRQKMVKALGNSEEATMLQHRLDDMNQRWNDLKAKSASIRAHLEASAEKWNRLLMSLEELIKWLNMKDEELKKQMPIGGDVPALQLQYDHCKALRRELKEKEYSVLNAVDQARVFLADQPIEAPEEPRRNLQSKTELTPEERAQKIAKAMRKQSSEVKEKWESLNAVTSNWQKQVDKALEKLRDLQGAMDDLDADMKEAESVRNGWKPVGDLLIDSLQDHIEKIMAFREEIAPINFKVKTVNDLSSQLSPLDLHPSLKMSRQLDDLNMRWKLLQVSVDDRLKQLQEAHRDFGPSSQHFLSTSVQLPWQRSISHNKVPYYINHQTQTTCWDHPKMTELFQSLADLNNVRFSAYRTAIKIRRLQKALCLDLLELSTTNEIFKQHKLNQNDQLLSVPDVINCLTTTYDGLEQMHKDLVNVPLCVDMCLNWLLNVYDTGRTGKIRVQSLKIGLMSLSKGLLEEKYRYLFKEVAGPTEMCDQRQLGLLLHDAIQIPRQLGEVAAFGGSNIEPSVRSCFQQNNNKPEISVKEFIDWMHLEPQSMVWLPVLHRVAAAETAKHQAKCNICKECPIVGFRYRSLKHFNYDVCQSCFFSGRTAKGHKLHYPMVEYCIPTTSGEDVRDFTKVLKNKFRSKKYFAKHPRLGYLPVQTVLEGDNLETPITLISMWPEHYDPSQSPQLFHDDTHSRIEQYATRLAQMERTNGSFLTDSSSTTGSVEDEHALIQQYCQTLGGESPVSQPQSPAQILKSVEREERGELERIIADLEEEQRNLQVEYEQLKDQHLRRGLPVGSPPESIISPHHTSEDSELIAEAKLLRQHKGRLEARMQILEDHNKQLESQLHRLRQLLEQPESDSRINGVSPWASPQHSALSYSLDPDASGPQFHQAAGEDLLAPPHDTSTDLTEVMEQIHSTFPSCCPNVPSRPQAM

What follows are targets tested with COC(=O)C#Cc1ccccc1 [methyl 3-phenylpropiolate] (assay: log2 ratio of iodoacetamide-alkyne labeling of the cysteine site, DMSO over compound (competition); higher = stronger covalent engagement of the cysteine by the compound, active = 1 or more). Conditions: 500 µM; treatment time 1 h; system: HEK293T cell lysate.
In short: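 HEK293T lysate at 2 mg/mL was treated with vehicle or electrophile (500 µM) for 1 h at ambient temperature, then labelled with iodoacetamide alkyne (1 h), clicked to sCIP-TMT reagents, pooled, digested with trypsin overnight at 37 °C, enriched on streptavidin and eluted with acid. Peptides were analysed by Orbitrap Eclipse LC-MS/MS with FAIMS and quantified in FragPipe, using duplicate channels and three replicates, with cysteines quantified in only one replicate excluded. The log2 competition ratio for each cysteine is the mean control-channel reporter intensity divided by the mean compound-channel reporter intensity.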

log2 ratio of iodoacetamide-alkyne labeling, inactive:
RBM25 C132 (UniProt P49756) 0.119, NDUFV1 C206 (UniProt P49821) 0.223, MKI67 C226 (UniProt P46013) 0.319, NAMPT C401 (UniProt P43490) 0.0773, UniProt P46734_C29 0.516, CCT3 C398 (UniProt P49368) 0.106, UniProt P45985_C246 0.0512, CAPZB C36 (UniProt P47756) 0.0452, RANBP2 C105 (UniProt P49792) 0.0738, RANBP2 C2407 (UniProt P49792) 0.116, PTDSS1 C419 (UniProt P48651) 0.275, MSH2 C822 (UniProt P43246) 0.226, VASP C64 (UniProt P50552) 0.0103, RANGAP1 C82 (UniProt P46060) 0.944, UTRN C1059 (UniProt P46939) -0.137
